The source of these data is US8741947B2, “Biologically active macrolides, compositions, and uses thereof” (The United States of America, as represented by the …, priority 2000, dated 2014).

For this data set, the system named is Chromaffin Granule Membrane V-ATPase. Briefly: V-ATPase inhibitory assay, chromaffin granule membrane. It is filed as biochemical, bovine. The conditions noted are these: ratio of Ki CGM to Ki NCVM. Here is the method: The V-ATPase inhibitory assays were performed on representative compound(s) of the present invention using non-mammalian or mammalian (e.g., bovine cromaffin granule) V-ATPases as described by Bowman et al., Proc. Natl. Acad. Sci. USA, 85, 7972-7976, 1988.

Some results are limits rather than exact numbers.

`CO/C1=C\C(C)=C\[C@@H](C)[C@@H](O)[C@@H](C)C/C(C)=C/C=C/[C@H](OC)[C@@H]([C@@H](C)[C@@H](O)[C@H](C)[C@@]2(O)C[C@@H](O)[C@H](C)[C@@H](C(C)C)O2)OC1=O` [Bafilomycin A1, bafilomycin A1, reference compound]: the “Ratio GCM/NC” value was 0.5. As for `COC(=O)C(C)(C)C(O)C(C)C(=O)C(C)(C)C=CC(=O)NC(CC(C)C)C(O)C(C)C=C(C)C(O)C(C)CCC(O)C(C)C(=O)NC(C(C)O)C1OC(=O)C(C(O)C(=O)O)NC(=O)C=CC=CCCC=CC=CCC2CC(C)CC(CC(O)C(C)C(O)C(C)=CC(C)C(O)C(C)=CCC(OC(=O)CC(O)C(=O)O)C1C)O2` (stereo not drawn) [Chondropsin A, 73-deoxy, 73-deoxychondropsin A], the “Ratio GCM/NC” value came out at 30. The figure for `COC(=O)C(C)(C)C(O)C(C)C(=O)C(C)(C)C=CC(=O)NC(C(O)C(C)C)C(O)C(C)C=C(C)C(O)C(C)CCC(O)C(C)C(=O)NC(C(C)O)C1OC(=O)C(C(O)C(=O)O)NC(=O)C=CC=CCCC=CC=CCC2CC(C)CC(CC(O)C(C)C(O)C(C)=CC(C)C(O)C(C)=CCC(OC(=O)CC(O)C(=O)O)C1C)O2` (stereo not drawn) [Chondropsin A, chondropsin A] is >13; for `COC(=O)C(O)CC(=O)OC1CC=C(C)C(O)C(C)C=C(C)C(O)C(C)C(O)CC2CC(C)CC(CC=CC=CCCC=CC=CC(=O)NC(C(O)C(=O)OC)C(=O)OC(C(NC(=O)C(C)C(O)CCC(C)C(O)C(C)=CC(C)C(O)C(NC(=O)C=CC(C)(C)C(=O)C(C)C(O)C(C)(C)C(=O)OC)C(O)C(C)C)C(C)O)C1C)O2` (stereo not drawn) [Chondropsin A, dimethyl ester, chondropsin A dimethyl ester] it is 10; for `COC(=O)C(C)(C)C(O)C(C)C(=O)C(C)(C)C=CC(=O)NC(C(O)C(C)C)C(O)C(C)C=C(C)C(O)C(C)CCC(O)C(C)C(=O)NC(C(C)O)C1OC(=O)C(C(O)C(=O)O)NC(=O)C=CC=CCCC=CC=CCC2CC(C)CC(CC(O)C(C)C(O)C(C)=CC(C)C(O)C(C)=CCC(O)C1C)O2` (stereo not drawn) [Chondropsin B, chondropsin B] it is 30. Take `CC1=CCC(OC(=O)CC(O)C(=O)O)C(C)C(C(NC(=O)C(C)C(O)CCC(C)C(O)C(C)=CC(C)C(O)C(CC(C)C)NC(=O)C=CC(C)(C)C(=O)C(C)C(O)C(C)C)C(C)O)OC(=O)C(C(O)C(=O)O)NC(=O)C=CC=CCCC=CC=CCC2CC(C)CC(CC(O)C(C)C(O)C(C)=CC(C)C1O)O2` (stereo not drawn) [Chondropsin C, chondropsin C]: the “Ratio GCM/NC” value came to 38.

For the compound `COC(=O)C(C)(C)C(O)C(C)C(=O)C(C)(C)C=CC(=O)NC(C(O)C(C)C)C(O)C(C)C=C(C)C(O)C(C)CCC(O)C(C)C(=O)NC1C(C)OC(=O)C(C(O)C(=O)O)NC(=O)C=CC=CCCC=CC=CCC2CC(C)CC(CC(O)C(C)C(O)C(C)=CC(C)C(O)C(C)=CCC(OC(=O)CC(O)C(=O)O)C(C)C1O)O2` (stereo not drawn) [Chondropsin D, chondropsin D], the “Ratio GCM/NC” value is listed as >71.

For the compound `C/C=C/[C@H]1O[C@@](O)([C@@H](C)[C@H](O)[C@H](C)[C@H]2OC(=O)/C(OC)=C/C(C)=C/[C@@H](C)[C@@H](O)[C@@H](CC)[C@@H](O)[C@H](C)C/C(C)=C/C=C/[C@@H]2OC)C[C@@H](O[C@H]2C[C@@H](O)[C@H](OC(N)=O)[C@@H](C)O2)[C@@H]1C` [Concanamycin A, concanamycin A, reference compound], the “Ratio GCM/NC” value came to 1.5. The figure for `CC/C=C\C=C/C(=O)N/C=C/C[C@H]1C[C@@H](O)[C@@H](C)C/C=C/Cc2cccc(O)c2C(=O)O1` [Salicylihalamide A, salicylihalamide A, reference compound] is <0.0007.
